The values below come from the supplement of paper PMC7666118.

The list shows a part of the results.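 The calls were made as follows: active = dose-dependent thermal stabilisation significant by F-test of dose-response against flat model at 10% FDR; inactive = not significant.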

In the assay the target is HIVEP1 (UniProt P15822). The assay can be described thus: dose-dependent thermal stabilisation call (2D-TPP, DLPTP, 10% FDR) (binary (1 = stabilised)); higher = stabilised by the compound. Conditions: system: Jurkat gel-filtered lysate; concentration range 1-500 µM. How it is done:
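2D thermal proteome profiling in gel-filtered Jurkat E6.1 lysate (2 mg/ml) treated with NaGTP (0, 1, 10, 100, 500 uM) for 10 min at room temperature, then heated 3 min at one of 12 temperatures (42-63.9 C). Soluble protein was quantified by TMT10 MS. The value is the DLPTP call of the paper: dose-dependent thermal stabilisation over all temperatures at 10% FDR (F-test of a dose-response against a flat model); one experiment, one call per tested protein.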
As for `Nc1nc2c(ncn2[C@@H]2O[C@H](COP(=O)(O)OP(=O)(O)OP(=O)(O)O)[C@@H](O)[C@H]2O)c(=O)[nH]1`, the “dose-dependent thermal stabilisation call” value is inactive: 0.
